## Primary screen of a compound library

Chains of the proteins cited; added tags and fusions are not shown.
UniProt P9WPC5, whole entry: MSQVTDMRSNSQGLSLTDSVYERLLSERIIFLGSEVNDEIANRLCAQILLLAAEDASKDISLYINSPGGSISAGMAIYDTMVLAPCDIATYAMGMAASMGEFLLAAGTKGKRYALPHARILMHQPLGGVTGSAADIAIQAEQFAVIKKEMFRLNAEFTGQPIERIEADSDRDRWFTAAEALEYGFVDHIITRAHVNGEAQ
UniProt P9WPC3, whole entry partner: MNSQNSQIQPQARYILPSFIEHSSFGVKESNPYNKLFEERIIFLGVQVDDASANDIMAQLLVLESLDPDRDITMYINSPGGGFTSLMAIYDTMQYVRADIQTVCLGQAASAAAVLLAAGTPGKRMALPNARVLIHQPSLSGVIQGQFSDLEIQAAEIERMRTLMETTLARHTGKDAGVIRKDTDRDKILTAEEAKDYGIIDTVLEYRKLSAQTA
UniProt P9WNZ1, whole entry: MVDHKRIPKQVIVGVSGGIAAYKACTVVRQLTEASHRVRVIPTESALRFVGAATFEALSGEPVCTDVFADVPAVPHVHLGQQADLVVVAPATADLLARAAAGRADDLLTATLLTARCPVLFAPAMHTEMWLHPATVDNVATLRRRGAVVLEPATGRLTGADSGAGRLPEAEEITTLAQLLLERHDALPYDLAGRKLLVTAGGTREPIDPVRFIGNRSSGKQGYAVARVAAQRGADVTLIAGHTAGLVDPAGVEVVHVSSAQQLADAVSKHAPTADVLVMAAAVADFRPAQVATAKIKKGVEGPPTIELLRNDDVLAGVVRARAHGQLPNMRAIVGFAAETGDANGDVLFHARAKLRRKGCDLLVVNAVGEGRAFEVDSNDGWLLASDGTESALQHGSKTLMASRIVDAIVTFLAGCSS

Toxoplasma: 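Assay of Toxoplasma gondii numbers, read through their beta-galactosidase reporter with a colour substrate. Compounds at 10 µM. Higher reads as fewer parasites (inferred from which compounds were picked for retests). About 67,000 compounds were tested under these conditions; 0.38% (about 260) showed 50% or more at least once.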
ClpP1P2: 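ClpP1P2, Mycobacterium tuberculosis (UniProt P9WPC5 and UniProt P9WPC3). Protease assay of ClpP1P2, read by the AMC dye that it sets free. Tested at 50 µM. Direction is inferred from only a few compounds that gave an IC50; most scored high, so higher reads as stronger inhibition. Most other retested compounds had strongly negative values. Of about 69,000 compounds tested this way, about 10 (0.015%) reached 50% or more in at least one test.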
T. brucei: 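Whole-parasite assay of Trypanosoma brucei over 72 hours; the read-out is not stated. Tested at 30 µM. Higher reads as stronger inhibition (inferred: compounds with an IC50 in retests scored well above the rest). Values scatter widely below zero; nearly all retest evidence comes from the higher of the two concentrations used. Of about 64,000 compounds tested this way, about 940 (1.5%) reached 50% or more in at least one test.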
CoaBC: 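Coenzyme A biosynthesis protein CoaBC, Mycobacterium tuberculosis (UniProt P9WNZ1). Enzyme assay of CoaBC with a phosphate dye (Biomol Green) read at 650 nm. Tested at 30 µM. Direction is inferred from only a few compounds that gave an IC50; most scored high, so higher reads as stronger inhibition. Most strong results did not repeat in a second test. Size under these conditions: about 67,000 compounds, about 40 of them at 50% or above in at least one test.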

Values are the deposited “Percent Effect”, in %.
How 0% and 100% were set is not recorded. Most values in the screen are low, and negative values occur.
The compounds are a random part of those screened.
Two or more numbers in one place are separate tests of the same structure; such repeats can differ widely.
A dash means the value is not listed here; it may have been measured.

compound	Toxoplasma	ClpP1P2	T. brucei	CoaBC
CC(C)c1nc(CC(=O)N2CCN(C)CC2c2ccccc2)cs1 (stereo unspecified)	6.302	-1.492	-91.57	-3.548
Cc1ccc(CNC(=O)N2CCCC(NS(C)(=O)=O)C2)cc1 (stereo unspecified)	3.799	-31.02	-	1.044
COC(=O)[C@@H](Nc1nc(C2CCCC2)nc2c1cnn2C)[C@@H](C)O	-13.62	-12.9	-34.84	1.737
O=C(O)C(F)(F)F.[H][C@@]12CN(Cc3ccoc3)CCO[C@]1([H])CN(C(=O)c1sccc1C)C2	-5.11	-	-	-
CC(C)C1CN(S(=O)(=O)N(C)C)CCCN1Cc1ccc(F)cc1 (stereo unspecified)	1.427	-17.16	-73.77	-4.194
O=C(NCCn1ccnc1C1CCOC1)c1cccnc1 (stereo unspecified)	-1.61	-2.159	-10.22	-5.622
Cn1cc(CN2CCCC(c3nccnc3-c3cccc(F)c3)C2)cn1 (stereo unspecified)	-10.98	-7.074	-	20.05 and 7.732
COc1cc(C2CC(=O)Nc3c2c(=O)[nH]n3C2CCCCC2)ccc1O (stereo unspecified)	3.794	-3.435	1.652	-10.85
Fc1ccccc1CN(CCCn1ccnc1)CC1CCOC1 (stereo unspecified)	-	-5.373	-	-3.398
Cc1ccc(NC(C)C(=O)NCc2cccs2)cc1Cl (stereo unspecified)	-0.9259	7.591	-24.99	0.978
COCC(=O)N(Cc1ccc2[nH]ccc2c1)C1CC1	-12.89	-5.879	-34.34	2.658
Cc1cccc(NC(=O)N2CCC3(CC(=O)N(c4ccsc4)C3)C2)c1 (stereo unspecified)	-30.47	-2.365	-8.341	6.824
Fc1cnc(N2CCn3c(CN4CCCC4)nnc3C2)nc1	-	-2.439	-	1.932
O=C(NCCN1CCOCC1)Nc1cnc2cc(Cl)ccc2c1O	17.15	10.26	-25.96	-3.676
CCC(NC(=O)CNCC(F)(F)F)c1cc(F)ccc1F (stereo unspecified)	-1.702	-10.12	7.783	1.394
CCc1ccc(CN2CCc3c(nnn3C)C2COC)cc1 (stereo unspecified)	-	4.493	-	0.2049
CCCS(=O)(=O)N1CCN(C(=O)CO)CC1	-0.1517	5.739	-27.33	9.153
FC(F)(F)Oc1cccc(CNC[C@H]2Cn3ccnc3CO2)c1	4.669	-4.051	-4.172	1.987
CCN(CC)[C@@H]1CN(C(=O)c2ccnnc2)[C@@H]2CCCO[C@H]12	-	5.956	-	-
Cc1ccc(-c2cn[nH]c2C2CCCN(c3cc(N)ncn3)C2)cc1 (stereo unspecified)	4.492	2.995	6.886	1.775
O=C(C1CCOc2ccccc2C1)N1Cc2cnn(CCO)c2C1 (stereo unspecified)	-2.683	-0.9605	-30.82	-5.785
CNC(=O)c1cccc(CNC2CCSc3c(Cl)cccc32)c1 (stereo unspecified)	-2.715	3.45	-50.72	1.138
Cc1nn(C)c2ncc(NC(=O)N(C)Cc3cc(Cl)cn3C)cc12	0.6866	-8.574	14.8	11.74
O=C(CCc1cc2n(n1)CCCNC2)NCCCSC1CCCCC1	8.18	-11.41	-66.28	0.3589
CN(CC(=O)N1CCCCC1c1nccs1)C1CC1 (stereo unspecified)	14.06	15.52	-	-13.67
c1cnc(N2CCCC3(CCN(CC4CC4)C3)C2)nc1 (stereo unspecified)	-	1.239	-	3.553
O=C(O)C(F)(F)F.[H][C@@]12CCC(=O)N(CCOC)[C@]1([H])CCN2Cc1ccc(C)s1	-2.98	-	-23.07	-
O=C(CCc1ccsc1)NCC1CCN(c2ccccc2)C1 (stereo unspecified)	-1.861	-5.02	-13.49	2.532
Cc1cc(C)n(CC2CCCN2CC(=O)NC2CCOCC2)n1 (stereo unspecified)	-1.165	2.054	9.723	3.133
O=C(OCc1cccs1)c1cccc(C(=O)N2CCCC2)n1	-7.659	-4.397	-43.38	-0.8485
COc1cccc(-c2nc(C)c(C(=O)N[C@@H](CC(C)C)C(=O)O)s2)c1	-7.622	-5.401	-38.77	1.263
[H][C@@]12CN(Cc3ccoc3)CCO[C@]1([H])CN(C(=O)CS(C)(=O)=O)C2	-22.92	-	-22.22	-
CC(=O)N1CCC(Cc2cnc(-c3c(C)n[nH]c3C)cn2)CC1	11.08	-3.476	-33.01	-0.2433
Cc1cc2cc(C(=O)N3CC[C@H](O)[C@]4(CCCO4)C3)ccc2o1	-3.474	0.5294	9.508	1.178
Cc1cn2c(n1)CCC(NC(=O)c1ccc(OCC3CC3)nc1)C2 (stereo unspecified)	1.983	-7.222	-20.18	3.175
Cc1cc(C)n(CC2CCCCN2CCC(=O)Nc2cc(C)on2)n1 (stereo unspecified)	-18.16	-3.952	-0.7258	0.3727

Repeated from the top, 5 entries:

compound,Toxoplasma,ClpP1P2,T. brucei,CoaBC
CC(C)c1nc(CC(=O)N2CCN(C)CC2c2ccccc2)cs1 (stereo unspecified),6.302,-1.492,-91.57,-3.548
Cc1ccc(CNC(=O)N2CCCC(NS(C)(=O)=O)C2)cc1 (stereo unspecified),3.799,-31.02,-,1.044
COC(=O)[C@@H](Nc1nc(C2CCCC2)nc2c1cnn2C)[C@@H](C)O,-13.62,-12.9,-34.84,1.737
O=C(O)C(F)(F)F.[H][C@@]12CN(Cc3ccoc3)CCO[C@]1([H])CN(C(=O)c1sccc1C)C2,-5.11,-,-,-
CC(C)C1CN(S(=O)(=O)N(C)C)CCCN1Cc1ccc(F)cc1 (stereo unspecified),1.427,-17.16,-73.77,-4.194

Source: ChEMBL document CHEMBL3988442, “University of Dundee, Small-Polar-MMV Screening Library” (2021).